PubChem BioAssay AID1053208 | Peter MacCallum Cancer Centre – 2014
Purpose: 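Synthetic lethal interactions between gene loss and doxorubicin in osteosarcoma cells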 (primary screen). Cell system: mouse osteosarcoma cells, early-passage culture from an engineered mouse model of fibroblastic bone tumour. Reagents: siRNA pool against mouse genes, 40 nM. Timing: about 120 h (48 h before drug, then 72 h with drug). Treatment: doxorubicin 100 nM for 72 h, roughly 30-40% inhibitory dose. Measurement: 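Viability read as ATP luminescence after 72 h of 100 nM doxorubicin or none, duplicate wells averaged, scaled to non-targeting siRNA, then expressed as robust z-scores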. Direction: viability z-score with doxorubicin: higher = more viable cells under doxorubicin; viability z-score without drug: higher = more viable cells with knock-down alone. Rule for the call: 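Called active if knock-down leaves viability unchanged without drug (z within -2 to 2) but lowers it with doxorubicin (z at or under -2)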.
The deposit covers about 17,000 reagents; shown is an unselected part. Over the whole deposit, 788 (4.7%) are marked active. 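Calls rest on z-score classes alone; an extra cut-off of viability at most 70% of control was not applied to them.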 Further read-outs or replicates are left out here. No sequences are given here.

Depletion of Uqcc2 (ubiquinol-cytochrome c reductase complex assembly factor 2) resulted in: combined z-score class no change with or without drug; viability z-score with doxorubicin -0.22; viability z-score without drug 0; inactive.
Zfp35 (zinc finger protein 35) scored combined z-score class no change with or without drug; viability z-score with doxorubicin 0.45; viability z-score without drug 0.51; inactive.
Silencing of Mat2b gave: combined z-score class no change with or without drug; viability z-score with doxorubicin -1.35; viability z-score without drug 0.17; inactive.
Chrm4 (cholinergic receptor, muscarinic 4) scored combined z-score class no change with or without drug; viability z-score with doxorubicin 1.24; viability z-score without drug 0.17; inactive.
Or6c202 (olfactory receptor family 6 subfamily C member 202) gave combined z-score class no change with or without drug; viability z-score with doxorubicin 0.56; viability z-score without drug 1.35; inactive.
Against Timm10b (translocase of inner mitochondrial membrane 10B), the values are combined z-score class no change with or without drug; viability z-score with doxorubicin 0.11; viability z-score without drug 0.17; inactive.
For Flrt1 (fibronectin leucine rich transmembrane protein 1) the deposit lists combined z-score class no change with or without drug; viability z-score with doxorubicin 0.67; viability z-score without drug 0.67; inactive.
Silencing of Tnfrsf11b resulted in: combined z-score class no change with or without drug; viability z-score with doxorubicin -0.9; viability z-score without drug 0; inactive.
With knock-down of Zfp212 (Zinc finger protein 212), the screen gave combined z-score class no change with or without drug; viability z-score with doxorubicin -1.12; viability z-score without drug -0.17; inactive.
For Serpinb7 (serine (or cysteine) peptidase inhibitor, clade B, member 7), the values are combined z-score class no change with or without drug; viability z-score with doxorubicin -0.22; viability z-score without drug -1.01; inactive.
Silencing of Zw10 (zw10 kinetochore protein) came out at: combined z-score class no change with or without drug; viability z-score with doxorubicin 0; viability z-score without drug -0.67; inactive.
Cdk4 (cyclin dependent kinase 4) scored combined z-score class no change with or without drug; viability z-score with doxorubicin 0.67; viability z-score without drug -0.17; inactive.

Part of the list above, reduced to “combined z-score class”:
Flrt1 (fibronectin leucine rich transmembrane protein 1)	no change with or without drug
Tnfrsf11b	no change with or without drug
Zfp212 (Zinc finger protein 212)	no change with or without drug

The listing continues.
With knock-down of Cpt1b (carnitine palmitoyltransferase 1b, muscle) the results were combined z-score class no change with or without drug; viability z-score with doxorubicin 0.9; viability z-score without drug 0.34; inactive.
Clcn6 (chloride channel, voltage-sensitive 6) gave combined z-score class no change with or without drug; viability z-score with doxorubicin -1.35; viability z-score without drug 0.34; inactive.
Depletion of Hmx3 (H6 homeobox 3) gave: combined z-score class no change with or without drug; viability z-score with doxorubicin 0.34; viability z-score without drug 0.84; inactive.
Cyp2c37 (cytochrome P450, family 2. subfamily c, polypeptide 37) showed combined z-score class no change with or without drug; viability z-score with doxorubicin 1.01; viability z-score without drug 0.17; inactive.
Wfdc2 (WAP four-disulfide core domain 2) showed combined z-score class no change with or without drug; viability z-score with doxorubicin 0.67; viability z-score without drug 1.18; inactive.
With knock-down of Lrrc8d (leucine rich repeat containing 8D), the screen gave combined z-score class no change with or without drug; viability z-score with doxorubicin 1.24; viability z-score without drug 1.52; inactive.
For Rabepk (Rab9 effector protein with kelch motifs), the entry reads combined z-score class no change with or without drug; viability z-score with doxorubicin 0; viability z-score without drug -0.51; inactive.
With knock-down of Bnip3l (BCL2/adenovirus E1B interacting protein 3-like) the results were combined z-score class no change with or without drug; viability z-score with doxorubicin -0.45; viability z-score without drug -0.84; inactive.
Fam168a (family with sequence similarity 168, member A) gave combined z-score class no change with or without drug; viability z-score with doxorubicin 0.11; viability z-score without drug 0; inactive.
Mest (mesoderm specific transcript) showed combined z-score class no change with or without drug; viability z-score with doxorubicin -0.22; viability z-score without drug -0.67; inactive.
For Dlst (dihydrolipoamide S-succinyltransferase), the values are combined z-score class no change with or without drug; viability z-score with doxorubicin 0; viability z-score without drug 0.34; inactive.
Silencing of Mphosph10 came out at: combined z-score class low cell count with and without drug; viability z-score with doxorubicin -3.37; viability z-score without drug -5.23; inactive.
Rara (retinoic acid receptor, alpha) scored combined z-score class no change with or without drug; viability z-score with doxorubicin 0.45; viability z-score without drug 0.17; inactive.
After knock-down of Cyp2r1 (cytochrome P450, family 2, subfamily r, polypeptide 1), the record shows combined z-score class no change with or without drug; viability z-score with doxorubicin 0.34; viability z-score without drug 0.34; inactive.
For Il1rap (interleukin 1 receptor accessory protein) the deposit lists combined z-score class no change with or without drug; viability z-score with doxorubicin -1.35; viability z-score without drug -0.17; inactive.
Depletion of Slc46a1 gave: combined z-score class no change with or without drug; viability z-score with doxorubicin -0.79; viability z-score without drug -0.34; inactive.
